Measurements published in PubChem BioAssay (EPA / NIEHS).
The inconclusive results got no clear call from the source; some entries with a clear call stand among them for comparison. A potency beside an inconclusive call is a rough fit, not a confirmed value. The source made the active and inactive calls. The calls were made as follows: active = hit-call score of the fitted dose curve at least 0.9, where 1 is the maximum; inconclusive = response in the unintended direction; inactive = score below 0.9.

These molecules were tested against human Phosphodiesterase 5 (PDE5), PDE5A (gene 8654) (UniProt O76074) (assay: NVS_ENZ_hPDE5: NovaScreen (NVS) Enzymatic Assay for human Phosphodiesterase 5 (PDE5) (AID 2283194)).
Procedure: NVS_ENZ_hPDE5 is a biochemical, single-readout assay that uses extracted gene-proteins in a cell-free assay. Measurements were taken 1 hour after chemical dosing in a 384-well plate.NVS_ENZ_hPDE5 is one of one assay component(s) measured or calculated from the NVS_ENZ_hPDE5 assay. It is designed to make measurements of enzyme activity, a form of enzyme reporter, as detected with fluorescence intensity signals by Fluorescence and electrophoretic mobility shift technology.Data from the assay component NVS_ENZ_hPDE5 was analyzed into 1 assay endpoint. This assay endpoint, NVS_ENZ_hPDE5, was analyzed in the positive analysis fitting direction relative to DMSO as the negative control and baseline of activity. Using a type of enzyme reporter, loss-of-signal activity can be used to understand changes in the enzymatic activity as they relate to the gene PDE5A. Furthermore, this assay endpoint can be referred to as a primary readout, because this assay has produced multiple assay endpoints where this one serves a enzymatic activity function. To generalize the intended target to other relatable targets, this assay endpoint is annotated to the esterase intended target family, where the subfamily is phosphodiesterase.
Binding assays used specific radioligands (tritiated, iodinated) with non-radioactive competitive displacement ligands in agonist or antagonist protocols (as indicated) and various reference compounds and inhibitors to titrate specific binding to receptors and transporters. Most enzyme assays (CYPs, kinases, phosphatases, proteases, HDACs) used recombinant protein and specific substrates (fluorescence mostly, some colorimetric and radioactive) and inhibitors, followed by a biochemical separation of substrate and product. All assays for the biochemical HTS were initially run in duplicate at a single concentration (10 uM for CYP450 assays and 25 uM for all others). […] Each assay was run with positive and negative controls, and concurrent controls on every plate. The follow-up (secondary) screen tested active chemical-pairs in concentration series, as well as a few additional assays not tested in the primary screen, some selected negative inactives, and several cases re-run in the concentration series for confirmatory purposes.
In the case of N#CSCSC#N, the AC50 is reported as inconclusive: 46.9 µM. In the case of O=[N+]([O-])c1ccc(Cl)cc1, the AC50 is reported as inconclusive: 25 µM. In the case of CON=C(C(=O)OC)c1ccccc1CON=C(C)c1cccc(C(F)(F)F)c1, the AC50 is reported as inconclusive: 0.366 µM. For c1ccc2c(c1)oc1ccccc12, the AC50 was inconclusive: 25 µM. CCNc1nc(Cl)nc(NC(C)(C)C#N)n1 was tested, and the AC50 was active: 13.6 µM. With C[Si](Cn1cncn1)(c1ccc(F)cc1)c1ccc(F)cc1 the outcome was “inactive”. For Clc1cccc(C(Cl)(Cl)Cl)n1, the AC50 was inconclusive: 0.118 µM. For CCNc1nc(NC(C)C)nc(SC)n1, the AC50 was active: 17.4 µM. In the case of Cc1nc(N(C)C)nc(OC(=O)N(C)C)c1C, the outcome is reported as “inactive”. With CCCCNC(=O)n1c(NC(=O)OC)nc2ccccc21 the outcome was “inactive”. In the case of Clc1cccc(Cl)c1Cl, the AC50 is reported as inconclusive: 25 µM. With N#Cc1ccc(N(CC(N)=O)CC(F)(F)F)cc1C(F)(F)F the outcome was “inactive”. c1ccc(OP(Oc2ccccc2)Oc2ccccc2)cc1 was tested, and the AC50 was inconclusive: 25 µM. For CC(C)Nc1nc(Cl)nc(NC(C)C)n1, the outcome was “inactive”. For CC(C)(C)CC(C)(C)c1ccc(O)cc1, the outcome was “inactive”. For CCCCC(CC)COC(=O)c1ccc(C(=O)OCC(CC)CCCC)c(C(=O)OCC(CC)CCCC)c1 (stereo unspecified), the outcome was “inactive”.
